Assay results taken from PubChem BioAssay AID2685 (National Center for Advancing Translational Sciences (NCATS), 2010).
Some of the results follow. The main result of the screen is listed elsewhere. These columns were measured beside it and carry no call. Compounds called inactive in the main read-out are mostly missing here. The note in brackets gives the kind of curve behind each potency; many fits are weak.

Experiment: qHTS Assay for Lipid Storage Modulators in Drosophila S3 Cells;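 on cell number change: cells counted by Cell Tracker Red CMTPX staining in the red channel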
Details: BODIPY lipid droplet fluorescence, 18-24 h; for cell number change: measured here: cell count max response, cells fed with added oleic acid
How it was run: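 Drosophila S3 cells got compounds at several concentrations plus oleic acid (400 uM solution). Laser-scanning cytometry with 488 nm excitation read lipid droplets at 500-530 nm and cells at 575-640 nm. Percent activity was relative to 20 uM Triacsin C.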

[1] = measured here: lipid fluorescence (Fed channel) AC50, cells fed with added oleic acid
[2] = measured here: cell number channel AC50, cells fed with added oleic acid

| SMILES | cell number change [%] | AC50 [1] | AC50 [2] |
| --- | --- | --- | --- |
| CC(C)Oc1ccc(C(=O)Nc2ccc([N+](=O)[O-])cc2)cc1 | 2.94 |  |  |
| Cc1ccc(S(=O)(=O)Nc2ccc3c(c2)nc(CCN2CCCCC2)n3C)cc1 | 10.2 | 6.51 µM [falling, single point] |  |
| COc1ccc(CCNC(=O)CCCC(=O)n2nc(C)c3ccccc32)cc1OC | -23.2 |  |  |
| COCCNC(C(=O)Nc1ccc([N+](=O)[O-])cc1Br)c1ccccc1 (configuration not stated) | 30.7 | 9.2 µM [rising, partial curve] | 7.31 µM [rising, partial curve] |
| CS(=O)(=O)N1CCCC(C(=O)Nc2c(F)cccc2F)C1 (configuration not stated) | 18.5 | 0.58 µM [rising, single point] |  |
| CCn1nc(C(=O)NCc2nnc3ccccn23)c2ccccc2c1=O | 10.4 |  |  |
| COc1cccc(NC(=O)CN(C)C(=O)/C=C/c2cn(-c3ccccc3)nc2-c2ccc(C)cc2)c1 | 29.2 | 1.03 µM [rising, partial curve] | 0.411 µM [rising, full curve, poor fit] |
| S=C(NCc1ccc2c(c1)OCO2)NCc1ccco1 | -34.8 |  |  |
| CNC(=O)C1Cc2ccccc2CN1S(=O)(=O)c1cccs1 (configuration not stated) | -6.6 | 5.17 µM [falling, full curve] |  |
| CN(C(=O)c1ccc(NC(=O)Cc2cccc(NC(=O)C3CCN(C(=O)C4CCCCC4)CC3)c2)cc1)C1CCCC1 | -0.368 | 0.731 µM [rising, single point] |  |
| O=C(CSc1nnc2ccccn12)Nc1nsc(-c2ccccc2)n1 | 7.62 |  |  |
| O=C(Nc1ccccc1N1CCOCC1)c1ccc2ccccc2n1 | 20.2 | 0.461 µM [rising, partial curve] | 0.013 µM [rising, full curve, poor fit] |
| CC1CC(C)(C)NC(=S)N1CCCC(=O)Nc1ccc(F)cc1 (configuration not stated) | -67.2 |  | 36.6 µM [falling, partial curve, poor fit] |
| Cc1cccc(N2CCN(C(=O)CNC(=O)C3CCCCC3)CC2)c1C | 90.4 |  | 13 µM [rising, partial curve] |
| COc1ccccc1/C=C/C(=C1/C(=O)N(c2ccccc2)N=C1C)c1ccc(C)cc1 | -2.1 |  | 6.51 µM [falling, single point] |
| CCn1c(SCCC#N)nnc1-c1ccncc1 | 12.6 |  |  |
| CCNc1nc(NCC)n2c(SCC(=O)Nc3ccc(Br)cc3F)nnc2n1 | 35.7 |  | 23.1 µM [rising, single point] |
| O=S(=O)(Nc1ccc2c(c1)OCCO2)c1c(F)cccc1F | 5.04 | 29.1 µM [rising, single point] |  |
| COc1cc(OC)c(OC)cc1CN1CCN(Cc2cccc(F)c2)CC1 | 18.2 |  |  |
| Cc1ccccc1C(=O)Nc1nnc(-c2ccncc2)o1 | -8.62 | 23.1 µM [falling, single point] |  |
| Cc1cc(=O)n2[nH]c(SCc3ccccc3)nc2n1 | -12 | 0.0517 µM [falling, full curve, poor fit] | 6.51 µM [falling, single point] |
| O=C1C2CCCCN2C(=O)N1CCCCN1CCN(c2ccccc2Oc2ccccc2)CC1 (configuration not stated) | -20.4 | 5.8 µM [falling, partial curve] |  |

Looked up above:
In AC50 [2], Cc1cc(=O)n2[nH]c(SCc3ccccc3)nc2n1 is entered as 6.51 µM [falling, single point]
In cell number change [%], O=C(CSc1nnc2ccccn12)Nc1nsc(-c2ccccc2)n1 is entered as 7.62

Next part

| SMILES | cell number change [%] | AC50 [1] | AC50 [2] |
| --- | --- | --- | --- |
| COc1ccc(-c2cc(C(F)(F)F)n3ncc(C(=O)NCC4CCCO4)c3n2)cc1 (configuration not stated) | 182 | 29.1 µM [rising, single point] | 29.1 µM [rising, single point] |
| Cc1c(C(=O)NC2=NCCS2)oc2ccccc12 |  |  | 1.84 µM [rising, partial curve] |
| Fc1ccc(CN2CCCCCCC2)cc1F | -49.5 | 25.9 µM [falling, partial curve] | 0.92 µM [falling, full curve, poor fit] |
| Cc1ccc(C)c(NC(=O)CSc2nnc(-c3ccccc3)n2N)c1 | 4.4 | 29.1 µM [rising, partial curve] |  |
| Cc1cc(SCC(=O)OC(C)C(=O)N(C)c2ccccc2)nc2ccccc12 (configuration not stated) | 22.6 |  |  |
| Cc1ccc(C2(C)NC(=O)N(CC(=O)NNC(=O)c3cc(C)oc3C)C2=O)cc1 (configuration not stated) | 4.47 |  |  |
| S=C(NCC1CCCO1)NC1CCCC1 (configuration not stated) |  | 2.59 µM [falling, partial curve, poor fit] |  |
| COCCCN1C(=O)c2[nH]nc(-c3ccccc3O)c2C1c1cccc(Cl)c1 (configuration not stated) | -41.7 | 32.6 µM [falling, single point] | 25.9 µM [falling, partial curve] |
| COCC(=O)N1CCC(Oc2ccc(C(=O)NC3CCOC(C)(C)C3)cc2)CC1 (configuration not stated) | -2.97 | 8.2 µM [rising, partial curve] |  |
| CCOC(=O)c1ccc(N=Nc2c(C)c(C#N)c(O)[nH]c2=O)cc1 | 51.3 |  | 23.1 µM [rising, single point] |
| COc1ccc(NC(=O)c2ccc(OC)c(S(=O)(=O)N3CCCCC3C)c2)cn1 (configuration not stated) | -15.2 |  |  |
| COc1ccccc1-c1nnc(SCc2nc3ccccc3[nH]2)n1C | -29.5 | 10.3 µM [falling, single point] |  |
| C/C=C/c1ccc(OCCCCOc2c(OC)cccc2OC)c(OC)c1 | 6.94 | 4.61 µM [falling, full curve, poor fit] |  |
| CN(C)c1ccc(C(=O)Nc2ccc(S(=O)(=O)Nc3nccs3)cc2)cc1 | 121 |  | 25.9 µM [rising, single point] |
| O=[N+]([O-])c1cccc(/C=C/c2nc3ccc([N+](=O)[O-])cc3[nH]2)c1 | 11 |  |  |
| Cc1ccccc1NS(=O)(=O)c1cc(C(=O)N2CCCC2)ccc1C |  | 2.06 µM [rising, partial curve] | 2.31 µM [rising, partial curve] |
| CCN1C(=O)CSC1=Nc1ccccc1Cl |  | 6.51 µM [rising, single point] |  |
| CCOC(=O)N1CCN(C(=O)/C=C/c2ccc(C(C)(C)C)cc2)CC1 | -30.4 | 6.51 µM [rising, single point] | 29.1 µM [falling, single point] |
| N=c1n(Cc2ccccc2)c2ccccc2n1CC(O)COc1ccc(Cl)cc1Cl (configuration not stated) | -63.1 | 10.3 µM [falling, partial curve] | 16.4 µM [falling, partial curve] |
| Clc1ccc(-c2nc(-c3ccccn3)no2)cc1Cl | 5.74 |  |  |
| CC(C)N(C(=O)NC(=O)Nc1ccccn1)S(C)(=O)=O | -39.7 |  | 0.184 µM [falling, full curve, poor fit] |
| O=C(c1ccccc1)N1CCN(c2ncccn2)CC1 |  | 23.1 µM [falling, single point] |  |

Another view of 3 compounds above:
SMILES | cell number change [%] | AC50 [1] | AC50 [2]
COc1ccc(-c2cc(C(F)(F)F)n3ncc(C(=O)NCC4CCCO4)c3n2)cc1 (configuration not stated) | 182 | 29.1 µM [rising, single point] | 29.1 µM [rising, single point]
Cc1c(C(=O)NC2=NCCS2)oc2ccccc12 |  |  | 1.84 µM [rising, partial curve]
Fc1ccc(CN2CCCCCCC2)cc1F | -49.5 | 25.9 µM [falling, partial curve] | 0.92 µM [falling, full curve, poor fit]

(more compounds)

| SMILES | cell number change [%] | AC50 [1] | AC50 [2] |
| --- | --- | --- | --- |
| CC(NC(=O)Cc1ccccc1)C(c1ccccc1)N1CCOCC1 (configuration not stated) |  | 0.58 µM [falling, single point] |  |
| Cc1cn(-c2ccc(Br)cc2)[nH]c1=O | -24.7 | 2.06 µM [falling, partial curve] | 0.00517 µM [falling, full curve, poor fit] |
| Cc1cccc(N2CCN(C(=O)c3cc(S(=O)(=O)N4CCOCC4)cn3C)CC2C)c1 (configuration not stated) | -15.8 |  |  |
| CC(C)(C)C1CCc2nc(NC(=O)Cc3cn4ccsc4n3)sc2C1 (configuration not stated) | -27.7 |  |  |
| CC(=O)c1ccc(N2CCN(C(=S)NCCCN(C)C)CC2)cc1 | -61.3 | 16.4 µM [falling, partial curve, poor fit] | 23.1 µM [falling, single point] |
| CN(C)c1ccc(/C=N/NC(=O)Cn2nnc3ccccc32)cc1 | 32.7 |  | 4.61 µM [rising, partial curve] |
| CCOc1ccc2nc(N/C(N)=N/C(=S)Nc3ccc(C)c(C)c3)nc(C)c2c1 | 28.8 | 0.0731 µM [rising, full curve] |  |
| Cc1c(Cl)cnc(NC(=O)CSc2nnc3ccccn23)c1Cl | 2.16 | 6.51 µM [falling, single point] |  |
| CC(=O)N1CCN(C(=O)c2ccc(S(=O)(=O)Nc3ccccc3Cl)cc2)CC1 | 36.6 |  | 9.2 µM [rising, partial curve] |
| O=C(O)c1oc2ccccc2c1CSc1ccc(Cl)cc1 | 0.794 | 29.1 µM [rising, single point] |  |
| CN(C)c1nc(NN)nc(Nc2ccc(F)cc2)n1 | 13.5 | 29.1 µM [rising, single point] |  |
| COc1ccc(/C=N/NC(=O)C(C)n2nnc3ccccc32)cc1OC (configuration not stated) | -7.92 |  |  |
| Cc1ccc(O)c(-c2[nH]ncc2C(=O)c2ccc(Br)cc2)c1 | -53.3 |  | 14.6 µM [falling, single point] |
| O=C(NNS(=O)(=O)c1ccc([N+](=O)[O-])cc1)c1ccncc1 | 42 |  | 10.3 µM [rising, partial curve, poor fit] |
| CN(C)/C=C/C1=CC(=O)CC(C)(C)C1 | -3.13 |  |  |
| COc1ccccc1N1CC(C(=O)Nc2nnc(SCc3cccnc3)s2)CC1=O (configuration not stated) | -1.16 |  |  |
| Cc1ccc(NC(=O)CC2SC(=Nc3ccc(O)cc3)NC2=O)cc1 (configuration not stated) | -0.361 | 0.291 µM [falling, partial curve, poor fit] |  |
| CC(C)Cc1nn2c(=O)cc(COc3ccc(NC(=O)c4ccco4)cc3)nc2s1 | 16.8 | 0.411 µM [rising, full curve] |  |
| COc1ccc(C(=O)Nc2nnc(CCS(=O)(=O)c3ccc(C)cc3)s2)cc1 |  |  | 2.91 µM [rising, single point] |
| CCOC(=O)CSc1nc2c(c(=O)n1-c1ccc(OCC)cc1)SCC2 | -227 | 20.6 µM [falling, partial curve] | 29.1 µM [falling, partial curve] |
